This is an account of results in article PMC7693105.

The chains behind the UniProt entries cited, without tags or fusion partners. Where a name states a change or a piece, a line headed by the entry shows the natural chain unless it says otherwise.
UniProt P10275: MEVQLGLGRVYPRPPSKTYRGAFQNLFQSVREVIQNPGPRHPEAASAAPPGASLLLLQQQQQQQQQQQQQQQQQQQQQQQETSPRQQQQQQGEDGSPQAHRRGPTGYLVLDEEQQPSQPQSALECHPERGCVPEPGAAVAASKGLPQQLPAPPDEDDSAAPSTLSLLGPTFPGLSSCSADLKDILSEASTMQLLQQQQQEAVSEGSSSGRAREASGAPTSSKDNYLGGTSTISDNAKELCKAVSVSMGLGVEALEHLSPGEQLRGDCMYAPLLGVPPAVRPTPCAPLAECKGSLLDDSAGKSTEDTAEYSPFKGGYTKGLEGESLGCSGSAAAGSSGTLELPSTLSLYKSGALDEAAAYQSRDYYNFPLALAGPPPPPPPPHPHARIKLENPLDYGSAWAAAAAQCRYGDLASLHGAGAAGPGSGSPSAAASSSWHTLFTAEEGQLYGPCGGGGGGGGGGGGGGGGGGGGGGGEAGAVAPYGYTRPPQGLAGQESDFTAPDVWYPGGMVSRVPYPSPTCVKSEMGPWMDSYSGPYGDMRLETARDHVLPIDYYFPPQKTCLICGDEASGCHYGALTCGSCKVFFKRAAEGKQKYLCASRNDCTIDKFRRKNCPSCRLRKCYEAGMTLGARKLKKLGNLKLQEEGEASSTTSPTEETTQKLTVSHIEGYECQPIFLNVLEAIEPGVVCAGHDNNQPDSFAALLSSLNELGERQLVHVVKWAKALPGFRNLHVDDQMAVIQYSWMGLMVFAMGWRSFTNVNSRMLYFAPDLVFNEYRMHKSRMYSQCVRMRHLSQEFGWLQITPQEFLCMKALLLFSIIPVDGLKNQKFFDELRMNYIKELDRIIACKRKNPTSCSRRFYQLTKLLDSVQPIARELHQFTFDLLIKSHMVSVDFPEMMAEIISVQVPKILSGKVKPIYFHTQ
UniProt O43791: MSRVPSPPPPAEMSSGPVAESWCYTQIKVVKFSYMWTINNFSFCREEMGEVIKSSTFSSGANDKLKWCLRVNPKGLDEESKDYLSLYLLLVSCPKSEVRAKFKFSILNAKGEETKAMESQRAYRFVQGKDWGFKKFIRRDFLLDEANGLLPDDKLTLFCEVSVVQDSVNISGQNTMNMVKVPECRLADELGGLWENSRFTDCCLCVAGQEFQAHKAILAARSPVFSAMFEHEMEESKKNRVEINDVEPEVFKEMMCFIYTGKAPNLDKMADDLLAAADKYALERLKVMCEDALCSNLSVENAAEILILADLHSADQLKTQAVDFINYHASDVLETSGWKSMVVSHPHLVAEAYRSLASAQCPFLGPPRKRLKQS

The target of assay [1] is androgen receptor (AR) on beads (UniProt P10275). Put plainly: pull-down; AR on beads (AR immune complex isolated from cells) incubated with 6x-His-SPOP (WT and 3A), binding analyzed; only the binder purified.
Assay [2] deals with T1, Aurora kinase A (AURKA) (human (endogenous in C4-2)) (UniProt O14965).
T1 sequence: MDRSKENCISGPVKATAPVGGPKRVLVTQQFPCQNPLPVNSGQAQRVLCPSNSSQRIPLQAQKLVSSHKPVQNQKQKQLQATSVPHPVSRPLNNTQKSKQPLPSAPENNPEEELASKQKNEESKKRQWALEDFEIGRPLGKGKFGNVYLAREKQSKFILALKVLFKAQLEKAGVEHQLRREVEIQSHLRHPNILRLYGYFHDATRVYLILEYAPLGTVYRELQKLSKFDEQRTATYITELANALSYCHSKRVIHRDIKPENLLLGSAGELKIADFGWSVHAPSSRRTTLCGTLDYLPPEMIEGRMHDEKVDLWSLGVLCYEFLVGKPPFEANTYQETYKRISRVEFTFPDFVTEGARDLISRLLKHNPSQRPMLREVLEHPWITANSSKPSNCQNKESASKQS
Put plainly: co-IP; endogenous SPOP or AURKA immunoprecipitated from C4-2 cells, partner detected in the immune complex; IgG IP as negative control.

Assay [3] concerns the target Speckle-type POZ (pox virus and zinc finger) protein (SPOP), endogenous (human (endogenous in C4-2)) (UniProt O43791). Put plainly: co-IP; SPOP immunoprecipitated from C4-2, SPOP-C4-2 and 3A-SPOP-C4-2 cells, AR detected by immunoblotting; IgG IP as control.
The target of assay [4] is HA-tagged wild-type SPOP expressed in C4-2 cells (UniProt O43791). Described as above.
Assay [5] deals with HA-tagged 3A-SPOP (S33A, T56A, S105A) expressed in C4-2 cells (UniProt O43791). The assay is described as above.
The target in assay [6] is Speckle-type POZ (pox virus and zinc finger) protein (SPOP), endogenous (human (endogenous in C4-2)) (UniProt O43791). Put plainly: co-IP; endogenous SPOP or AURKA immunoprecipitated from C4-2 cells, partner detected in the immune complex; IgG IP as negative control.

No constants are given. Whether binding was seen depends on the method and setting. In cells and extracts the contact can be indirect. Some results given as binding are weak or reduced against the parent protein; the word gives no strength.

Consider “6x-His-tagged 3A-SPOP (S33A, T56A, S105A triple mutant) (from UniProt O43791 1-374)”, for which, in assay [1], the binding entry is reported as “binds”.
In the case of “6x-His-tagged wild-type SPOP (from UniProt O43791 1-374)”, the binding entry in assay [1] is listed as “binds”.
Turning to “Speckle-type POZ (pox virus and zinc finger) protein (SPOP), endogenous (from UniProt O43791 1-374)”, in assay [2], the binding entry is listed as “binds”.
Turning to “androgen receptor (AR), endogenous in C4-2 cells (from UniProt P10275 1-920)”, the binding entry in assay [3], in assay [4] and in assay [5] was “binds” in each case.

B1: Aurora kinase A (AURKA) (enzyme, UniProt O14965 1-403)
chain: MDRSKENCISGPVKATAPVGGPKRVLVTQQFPCQNPLPVNSGQAQRVLCPSNSSQRIPLQAQKLVSSHKPVQNQKQKQLQATSVPHPVSRPLNNTQKSKQPLPSAPENNPEEELASKQKNEESKKRQWALEDFEIGRPLGKGKFGNVYLAREKQSKFILALKVLFKAQLEKAGVEHQLRREVEIQSHLRHPNILRLYGYFHDATRVYLILEYAPLGTVYRELQKLSKFDEQRTATYITELANALSYCHSKRVIHRDIKPENLLLGSAGELKIADFGWSVHAPSSRRTTLCGTLDYLPPEMIEGRMHDEKVDLWSLGVLCYEFLVGKPPFEANTYQETYKRISRVEFTFPDFVTEGARDLISRLLKHNPSQRPMLREVLEHPWITANSSKPSNCQNKESASKQS
In the case of B1, the binding result in assay [6] is given as “binds”.
